Data: PubChem BioAssay (NCATS)
Inconclusive means that the source gave no clear call. Such entries were picked first, then a sample of the others. For some of these results: Potencies of inconclusive entries are doubtful fits and often do not repeat. Calls of active or inactive are those of the source. Calls follow the shape of the dose curve; as a rule, active = well fitted curve in the direction sought with a large enough effect; inconclusive = small, poorly fitted or top-dose-only effect, or another doubt; inactive = no such curve, though single readings can be large; an effect the other way counts as inactive or inconclusive.

Columns and labels:
[1] = Quantitative highthroughput screen to assess conditional lethalithy of NOMO1 cells grown in RPMI1640 with untreated serum (RPMI+s) (AID 1963876); conditions: NOMO1 AML cells in RPMI+serum, CellTiter-Glo viability, 48 h; viability: at 45.8 µM (top of the series)
How it was run: (§1)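 Each medium arm—HPLM with 10% dialyzed FBS, or RPMI1640 with 5 mM glucose and 10% untreated or dialyzed FBS—was screened against an 11-point, 3-fold compound titration for 48 h at 37 °C, with CellTiter-Glo luminescence as endpoint.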

[2] = Quantitative highthroughput screen to assess conditional lethalithy of NOMO1 cells grown in Human Plasma-Like Medium with dialyzed fetal bovine serum (HPLM+ds) (AID 1963878); conditions: NOMO1 AML cells in HPLM+ds, CellTiter-Glo viability, 48 h; viability: at 45.8 µM (top of the series)
How it was run: as §1

[3] = Quantitative highthroughput screen to assess conditional lethalithy of P12 Ichikawa cells grown in RPMI1640 with untreated serum (RPMI+s) (AID 1963881); conditions: ATP luminescence, 48 h; Potency: viability; series mostly up to 45.8 µM
How it was run: as §1

[4] = Quantitative highthroughput screen to assess conditional lethalithy of SEM cells grown in RPMI1640 with dialyzed fetal bovine serum (RPMI+ds) (AID 1963884); conditions: SEM B-ALL cells, RPMI+dialyzed FBS, CellTiter-Glo viability, 48 h; viability: at 45.8 µM (top of the series)
How it was run: as §1

[5] = Quantitative highthroughput screen to assess conditional lethalithy of SEM cells grown in Human Plasma-Like Medium with dialyzed fetal bovine serum (HPLM+ds) (AID 1963882); conditions: SEM B-ALL cells in HPLM+ds, CellTiter-Glo viability, 48 h; series mostly up to 45.8 µM
How it was run: as §1

[6] = Quantitative highthroughput screen to assess conditional lethalithy of SEM cells grown in RPMI1640 with unreated serum (RPMI+s) (AID 1963883); conditions: SEM B-ALL cells, CellTiter-Glo viability, 48 h; viability: at 45.8 µM (top of the series)
How it was run: as §1
Also: nearly all actives have a fitted effect of over 35% in size.
Potency is read from the fitted curve at half-maximal effect.

Structure (SMILES): O=C(OCC#CCSc1nnc(-c2cccc3ccccc23)o1)c1cc2ccccc2s1
- Potency [1]: inconclusive: 10.5 µM [cytotoxic, single point]
- Potency [2]: inactive
- Potency [3]: inactive
- Potency [4]: inactive

Structure (SMILES): c1ccc2c(Oc3nc(Nc4ccc(N5CCOCC5)cc4)c4ncn(C5CCCCC5)c4n3)cccc2c1
- Potency [1]: inactive
- Potency [2]: inactive
- Potency [5]: inconclusive: 18.7 µM [cytotoxic, partial curve]
- Potency [6]: inconclusive: 18.7 µM [cytotoxic, partial curve]
- Potency [4]: inconclusive: 20.9 µM [cytotoxic, partial curve]

Structure (SMILES): CCCCc1nc2cc(C=CC(=O)NO)ccc2n1CCN(CC)CC
- Potency [1]: active: 4.18 µM
- Potency [2]: active: 4.69 µM
- Potency [6]: active: 2.09 µM
- Potency [4]: active: 2.09 µM

Structure (SMILES): CCC(=O)NC[C@H](Cc1ccc(OCCc2nc(-c3ccccc3)oc2C)cc1)NC(C)=CC(=O)c1ccc(C(F)(F)F)cc1
- Potency [1]: inconclusive: 14.8 µM [cytotoxic, partial curve]
- Potency [2]: inconclusive: 11.8 µM [cytotoxic, partial curve]
- Potency [3]: active: 16.6 µM
- Potency [5]: inconclusive: 6.62 µM [cytotoxic, full curve, poor fit]
- Potency [6]: inconclusive: 5.9 µM [cytotoxic, full curve, poor fit]
- Potency [4]: inconclusive: 6.62 µM [cytotoxic, full curve, poor fit]

Structure (SMILES): COc1cc2c(Nc3ccc(Cl)c(Cl)c3F)ncnc2cc1OCC1C[C@@H]2CN(C)C[C@H]2C1
- Potency [1]: inconclusive: 20.9 µM [cytotoxic, partial curve]
- Potency [2]: active: 4.18 µM
- Potency [3]: active: 13.2 µM
